Results are given in words; binding and its absence hold for the method and conditions named. For some of these results: Binding seen in cells or lysates may run through a third protein. Some entries that bind do so weakly or less than the wild type. For some of these results: Sequences can lack the tags named with a protein.

Protein sequences, listed by entry. Tags and fused reporters are not part of them. Lines headed by an entry give the natural chain unless they say otherwise; changes in a name come on top. Chains listed by the source or under a name are the forms on record and can include a tag or linker. Residues count along the entry.
UniProt Q9SCZ4: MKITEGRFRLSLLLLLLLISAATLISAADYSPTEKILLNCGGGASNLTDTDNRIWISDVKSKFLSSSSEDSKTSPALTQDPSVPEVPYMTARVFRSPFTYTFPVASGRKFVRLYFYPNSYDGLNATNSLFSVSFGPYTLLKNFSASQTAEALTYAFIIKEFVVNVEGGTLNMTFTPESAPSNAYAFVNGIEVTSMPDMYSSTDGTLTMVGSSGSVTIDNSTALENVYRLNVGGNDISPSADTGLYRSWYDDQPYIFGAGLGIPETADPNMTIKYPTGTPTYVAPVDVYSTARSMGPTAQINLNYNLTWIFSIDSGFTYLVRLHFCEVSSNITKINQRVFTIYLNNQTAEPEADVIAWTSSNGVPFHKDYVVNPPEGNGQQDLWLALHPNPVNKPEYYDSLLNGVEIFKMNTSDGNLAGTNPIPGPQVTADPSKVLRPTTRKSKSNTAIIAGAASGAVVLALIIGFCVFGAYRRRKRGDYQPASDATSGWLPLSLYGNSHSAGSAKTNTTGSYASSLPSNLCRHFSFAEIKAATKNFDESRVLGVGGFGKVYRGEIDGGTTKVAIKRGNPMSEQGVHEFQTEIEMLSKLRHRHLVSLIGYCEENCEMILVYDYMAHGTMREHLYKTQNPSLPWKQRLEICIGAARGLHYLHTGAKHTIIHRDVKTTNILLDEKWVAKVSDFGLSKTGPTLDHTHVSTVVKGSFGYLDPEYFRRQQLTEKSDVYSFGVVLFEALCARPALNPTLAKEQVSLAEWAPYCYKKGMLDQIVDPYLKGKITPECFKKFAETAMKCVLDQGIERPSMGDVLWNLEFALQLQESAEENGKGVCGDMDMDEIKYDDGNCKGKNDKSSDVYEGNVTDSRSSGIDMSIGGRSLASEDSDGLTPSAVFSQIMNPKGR
FER-nVenus: residues 28-895 of Q9SCZ4
FER kinase domain (FER-KD, 469–896 aa) fused to the GAL4 DNA-binding domain: residues 469-895 of Q9SCZ4
kinase-dead version of FER-KD containing the Lys565-to-Arg mutation, His-tagged (Q9SCZ4, form named): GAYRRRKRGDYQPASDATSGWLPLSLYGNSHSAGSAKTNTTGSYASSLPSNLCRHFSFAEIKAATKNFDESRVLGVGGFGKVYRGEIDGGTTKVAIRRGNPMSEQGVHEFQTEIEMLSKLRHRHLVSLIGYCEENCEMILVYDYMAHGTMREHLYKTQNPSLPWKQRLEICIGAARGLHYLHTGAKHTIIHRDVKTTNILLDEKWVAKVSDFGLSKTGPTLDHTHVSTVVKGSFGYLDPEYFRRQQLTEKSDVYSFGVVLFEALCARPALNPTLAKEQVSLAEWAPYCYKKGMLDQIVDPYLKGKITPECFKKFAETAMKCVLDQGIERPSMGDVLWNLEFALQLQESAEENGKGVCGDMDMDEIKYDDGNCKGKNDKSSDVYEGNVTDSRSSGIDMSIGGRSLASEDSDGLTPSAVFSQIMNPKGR

In test [1] the target is T1, full-length EBP1 protein tagged with GST (Arabidopsis) (UniProt Q96327).
T1 sequence: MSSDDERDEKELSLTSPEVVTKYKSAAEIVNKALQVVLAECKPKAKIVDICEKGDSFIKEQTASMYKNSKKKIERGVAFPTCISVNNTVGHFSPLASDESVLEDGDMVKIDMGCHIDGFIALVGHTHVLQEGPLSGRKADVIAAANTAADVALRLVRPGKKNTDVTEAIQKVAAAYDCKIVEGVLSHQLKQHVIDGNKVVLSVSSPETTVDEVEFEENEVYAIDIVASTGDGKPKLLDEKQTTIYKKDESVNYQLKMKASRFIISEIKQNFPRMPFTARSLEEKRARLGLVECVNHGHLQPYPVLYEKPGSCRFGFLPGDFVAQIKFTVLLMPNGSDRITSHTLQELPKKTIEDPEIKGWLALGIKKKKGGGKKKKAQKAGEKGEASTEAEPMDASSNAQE
Put plainly: pull-down; GST beads coupled with GST-EBP1 incubated overnight at 4°C with recombinant His-tagged FER-KD in 20 mM HEPES pH 7.5, 40 mM KCl, 5 mM MgCl2; washed with TBS; immunoblot with anti-His and anti-GST; both purified. Background: In western blotting, separated proteins are transferred to a membrane and probed.

Another test has as its target FER-FLAG (Arabidopsis) (UniProt Q9SCZ4). Put plainly: co-IP; anti-FLAG M2 agarose, extract of Ubi::FER-FLAG transgenic plants, eluted with 3 × FLAG peptide; blots with anti-FLAG and anti-EBP1.
Test [2] has as its target FERONIA (FER), endogenous (Arabidopsis (endogenous in seedlings)) (UniProt Q9SCZ4). Briefly: co-IP; anti-FER antibody on A/G agarose, extracts of 7-DAG seedlings in NEBT buffer (0.5% Triton X-100), with or without 1 μM RALF1 for 30 minutes; preimmune serum as negative control; blots with anti-FER and anti-EBP1.
Test [3] addresses FER kinase domain (FER-KD, 469–896 aa) fused to the GAL4 DNA-binding domain (Arabidopsis) (UniProt Q9SCZ4). Briefly: two-hybrid; directed test: EBP1 in the AD vector (pGADT7), FER-KD or CrRLK1L members in the BD vector (pGBKT7), yeast strain AH109; SD/-Ade/-Leu/-His medium with 20 mM 3-AT.
The target in another test is FER-nVenus (Arabidopsis) (UniProt Q9SCZ4). Briefly: split reporter; BiFC of cCFP and nVenus fusions in Arabidopsis protoplasts, 16 hours at 23°C in the dark; FM4-64 marks the plasma membrane.
Test [4] deals with FER kinase domain (FER-KD, 469–896 aa) fused to the GAL4 DNA-binding domain (Arabidopsis) (UniProt Q9SCZ4). Briefly: two-hybrid; library screen: FER-KD in pGBKT7 as bait against an Arabidopsis cDNA library, yeast strain AH109.

For “FER-KD tagged with 6 × His (from UniProt Q9SCZ4 469-895) (domain or fragment)”, the binding result in test [1] is recorded as “binds”.

As to “kinase-dead version of FER-KD containing the Lys565-to-Arg mutation, His-tagged (from UniProt Q9SCZ4 469-895) (domain or fragment)”, the binding entry in test [1] is “binds”.

B1: ErbB3-binding protein 1 (EBP1), endogenous (protein, UniProt Q96327-3 1-401)
chain: T1 sequence
Turning to B1, the binding result (with FER-FLAG (Arabidopsis); in test [2]) was “binds” throughout.

B2: full-length EBP1 fused to the GAL4 DNA-activating domain (protein, UniProt Q96327-3 1-401)
chain: T1 sequence
With B2, in test [3], the binding result was “binds”.

B3: EBP1–C-terminal cyan fluorescent protein (cCFP) (protein, UniProt Q96327-3 1-401)
chain: T1 sequence
Regarding B3, the binding result with FER-nVenus (Arabidopsis) is given as “binds”.

B4: EBP1 truncated version (229–401 aa), clone from the Arabidopsis cDNA library (domain or fragment, UniProt Q96327-3 229-401)
chain: TGDGKPKLLDEKQTTIYKKDESVNYQLKMKASRFIISEIKQNFPRMPFTARSLEEKRARLGLVECVNHGHLQPYPVLYEKPGSCRFGFLPGDFVAQIKFTVLLMPNGSDRITSHTLQELPKKTIEDPEIKGWLALGIKKKKGGGKKKKAQKAGEKGEASTEAEPMDASSNAQE
In the case of B4, in test [4], the binding entry was “binds”.

These data come from publication PMC6195255, “EBP1 nuclear accumulation negatively feeds back on FERONIA-mediated RALF1 signaling”.
